In patent US20020031818A1, “Modification of Mdm2 activity” (priority 2000, published 2002):
These are yes or no findings as the source states them, for the method shown. For some of these results: In cells and extracts the contact can be indirect. Some results given as binding are weak or reduced against the parent protein; the word gives no strength. For some of these results: Tags and fused reporters may be left off the sequences shown.

Amino acid sequences for entries named in this document (tags omitted). Residues count along the entry.
UniProt P63280, residues 2-158: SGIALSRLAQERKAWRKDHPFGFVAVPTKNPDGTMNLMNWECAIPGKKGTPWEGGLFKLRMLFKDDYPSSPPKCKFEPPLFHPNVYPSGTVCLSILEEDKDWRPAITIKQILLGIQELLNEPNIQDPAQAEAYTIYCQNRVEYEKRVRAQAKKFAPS

What was measured:
[1] = molecular target: Ubc9 of mouse fibroblast cells (EJ cell lysates; NIH 3T3 cells) (mouse) (UniProt P63280); assay: peptide on AminoLink beads incubated with EJ mouse fibroblast lysate (FIG. 9A legend)
[2] = molecular target: Ubc9 of mouse fibroblast cells (EJ cell lysates; NIH 3T3 cells) (mouse) (UniProt P63280); assay: peptide on AminoLink beads incubated with cell lysate, Western blot for Ubc9 (FIG. 9A)
[3] = molecular target: Ubc9 of mouse fibroblast cells (EJ cell lysates; NIH 3T3 cells) (mouse) (UniProt P63280); assay: HA immunoprecipitation from transfected cells, immunoblot for Ubc9 (FIG. 9B)
[4] = molecular target: Ubc9 of mouse fibroblast cells (EJ cell lysates; NIH 3T3 cells) (mouse) (UniProt P63280); assay: HA immunoprecipitation from transfected NIH 3T3 cells, co-immunoprecipitation of Ubc9 (FIG. 9B legend)

Binder	binding [1]	binding [2]	binding [3]	binding [4]
SVGAQKDTYTMKEVLFYLGQ [mu9bs peptide (Mdm2 Ubc9 binding site), synthetic peptide corresponding to aa 40-59 of Mdm2]	binds	binds		
SVGAQKDTYTMKEVLFYLGQ (peptide, not shown: small tags and cut ends) [mu9bs peptide expressed in cells with penetratin sequence and HA-tag (pcDNA3)]			binds	binds
